PubChem BioAssay AID1053208 – Peter MacCallum Cancer Centre | 2014
The deposit covers about 17,000 reagents; shown is a random part of them. 788 of all reagents (4.7%) were called active. 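Calls rest on z-score classes alone; an extra cut-off of viability at most 70% of control was not applied to them.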 Reagents against one gene are numbered here. No sequences are given here.

- Assay: 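Find knock-downs that sensitise mouse osteosarcoma cells to doxorubicin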 (primary screen)
- Cell system: mouse osteosarcoma cells, early-passage culture from an engineered mouse model of fibroblastic bone tumour
- Reagents: siRNA pool against mouse genes, 40 nM
- Timing: about 120 h (48 h before drug, then 72 h with drug)
- Conditions: doxorubicin 100 nM for 72 h, roughly 30-40% inhibitory dose
- Read-out: 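Luminescent ATP signal taken as viability with or without 100 nM doxorubicin for 72 h; mean of two wells set against non-targeting siRNA and turned into robust z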
- Direction: viability z-score with doxorubicin and doxorubicin viability vs non-targeting: higher = more viable cells under doxorubicin; viability z-score without drug: higher = more viable cells with knock-down alone; z-score of drug to no-drug ratio: higher = less drug sensitisation by knock-down
- Rule for the call: 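Called active if knock-down leaves viability unchanged without drug (z within -2 to 2) but lowers it with doxorubicin (z at or under -2)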

target gene,reagent,combined z-score class,viability z-score with doxorubicin,viability z-score without drug,z-score of drug to no-drug ratio,doxorubicin viability vs non-targeting,Call
"Rad52 (RAD52 homolog, DNA repair protein)",1,no change with or without drug,0.9,-0.34,1.35,1.02,inactive
Edc3 (enhancer of mRNA decapping 3),1,no change with or without drug,-0.34,1.01,-0.9,0.91,inactive
Tnks,1,no change with or without drug,-1.8,-0.17,-1.69,0.78,inactive
Tnks,2,no change with or without drug,0.9,0.34,0.79,1.02,inactive
Pgbd5 (piggyBac transposable element derived 5),1,no change with or without drug,-0.67,-0.84,0,0.88,inactive
Chmp5 (charged multivesicular body protein 5),1,no change with or without drug,-1.57,1.35,-2.25,0.8,inactive
Asic5 (acid-sensing ion channel family member 5),1,no change with or without drug,-0.45,-0.17,-0.22,0.9,inactive
H2ac25 (H2A clustered histone 25),1,no change with or without drug,-0.67,-0.51,-0.22,0.88,inactive
Or8j3c (olfactory receptor family 8 subfamily J member 3C),1,no change with or without drug,1.35,1.18,0.67,1.06,inactive
Lrrc8d (leucine rich repeat containing 8D),1,no change with or without drug,1.24,1.52,0.34,1.05,inactive
Rassf10,1,no change with or without drug,0,-1.85,1.57,0.94,inactive
Cfp (complement factor properdin),1,high cell count with doxorubicin only,2.36,1.52,1.46,1.15,inactive
"Tcea2 (transcription elongation factor A (SII), 2)",1,no change with or without drug,0.45,1.18,-0.22,0.98,inactive
Snupn (snurportin 1),1,no change with or without drug,-0.9,-0.17,-0.79,0.86,inactive
Elfn2,1,no change with or without drug,-1.01,-0.17,-0.9,0.85,inactive
Ascl3 (achaete-scute family bHLH transcription factor 3),1,no change with or without drug,0,0.67,-0.34,0.94,inactive
Mthfd2,1,no change with or without drug,0.34,0.67,0,0.97,inactive
Ptpra (protein tyrosine phosphatase receptor type A),1,no change with or without drug,0.45,0.17,0.45,0.98,inactive
Or51q1 (olfactory receptor family 51 subfamily Q member 1),1,no change with or without drug,-1.57,-1.18,-0.79,0.8,inactive
Eml6 (echinoderm microtubule associated protein like 6),1,no change with or without drug,-0.11,0.34,-0.22,0.93,inactive
Cdc16 (CDC16 cell division cycle 16),1,no change with or without drug,-1.24,-0.17,-1.12,0.83,inactive
5330416C01Rik (RIKEN cDNA 5330416C01 gene),1,no change with or without drug,1.01,1.35,0.22,1.03,inactive
HDAC9,1,no change with or without drug,0.9,1.52,0,1.02,inactive
Slc38a9,1,no change with or without drug,-0.11,-1.18,0.9,0.93,inactive
Slc38a9,2,no change with or without drug,-0.11,-0.17,0.11,0.93,inactive
Cdkn1c (cyclin dependent kinase inhibitor 1C),1,no change with or without drug,-0.67,0.84,-1.12,0.88,inactive
Zfp318 (zinc finger protein 318),1,high cell count without drug only,1.12,2.02,-0.11,1.04,inactive
Cxcl14 (C-X-C motif chemokine ligand 14),1,no change with or without drug,0.45,0.51,0.22,0.98,inactive
Gm5134 (predicted gene 5134),1,high cell count with doxorubicin only,2.25,0.17,2.36,1.14,inactive
Bnip3 (BCL2/adenovirus E1B interacting protein 3),1,high cell count with and without drug,2.47,2.02,1.12,1.16,inactive
Tceal9 (transcription elongation factor A like 9),1,high cell count with and without drug,3.48,3.37,1.24,1.25,inactive
Mcpt1 (mast cell protease 1),1,no change with or without drug,0.34,0.51,0.11,0.97,inactive
Olfm3 (olfactomedin 3),1,no change with or without drug,-0.34,-0.84,0.34,0.91,inactive
Samd10 (sterile alpha motif domain containing 10),1,no change with or without drug,0.45,0.84,0,0.98,inactive
Fgf14 (fibroblast growth factor 14),1,no change with or without drug,-1.01,-0.51,-0.67,0.85,inactive
Prpf4b (pre-mRNA processing factor 4B),1,no change with or without drug,-1.12,-1.52,0,0.84,inactive
Slc11a1,1,no change with or without drug,-0.22,0.84,-0.67,0.92,inactive
Pcmt1 (protein-L-isoaspartate (D-aspartate) O-methyltransferase 1),1,no change with or without drug,0.22,-0.51,0.67,0.96,inactive
Tmem123 (transmembrane protein 123),1,no change with or without drug,-1.57,-0.34,-1.35,0.8,inactive
Fdxacb1 (ferredoxin-fold anticodon binding domain containing 1),1,no change with or without drug,0,-0.51,0.45,0.94,inactive
8430403M15RIK,1,no change with or without drug,0.45,0.17,0.45,0.98,inactive
Hal (histidine ammonia lyase),1,no change with or without drug,0,0.51,-0.22,0.94,inactive
Pkhd1 (polycystic kidney and hepatic disease 1),1,no change with or without drug,-0.22,-0.84,0.45,0.92,inactive
Zfp697 (zinc finger protein 697),1,no change with or without drug,-0.22,0,-0.11,0.92,inactive
Dmtf1l (cyclin D binding myb like transcription factor 1 like),1,no change with or without drug,-0.9,0.84,-1.35,0.86,inactive
Pdyn (prodynorphin),1,no change with or without drug,-0.9,-0.51,-0.56,0.86,inactive
Nkain4 (Na+/K+ transporting ATPase interacting 4),1,no change with or without drug,-0.9,-1.01,-0.11,0.86,inactive
Cdca4 (cell division cycle associated 4),1,no change with or without drug,0.67,1.52,-0.22,1,inactive
Or5al5 (olfactory receptor family 5 subfamily AL member 5),1,no change with or without drug,-0.67,-1.18,0.22,0.88,inactive
Mzt1 (mitotic spindle organizing protein 1),1,no change with or without drug,-0.22,0.67,-0.56,0.92,inactive

Reformatted: entries from further up
{"target gene":"Elfn2","reagent":1,"combined z-score class":"no change with or without drug","viability z-score with doxorubicin":-1.01,"viability z-score without drug":-0.17,"z-score of drug to no-drug ratio":-0.9,"doxorubicin viability vs non-targeting":0.85,"Call":"inactive"}
{"target gene":"Ascl3 (achaete-scute family bHLH transcription factor 3)","reagent":1,"combined z-score class":"no change with or without drug","viability z-score with doxorubicin":0,"viability z-score without drug":0.67,"z-score of drug to no-drug ratio":-0.34,"doxorubicin viability vs non-targeting":0.94,"Call":"inactive"}
{"target gene":"Mthfd2","reagent":1,"combined z-score class":"no change with or without drug","viability z-score with doxorubicin":0.34,"viability z-score without drug":0.67,"z-score of drug to no-drug ratio":0,"doxorubicin viability vs non-targeting":0.97,"Call":"inactive"}
{"target gene":"Ptpra (protein tyrosine phosphatase receptor type A)","reagent":1,"combined z-score class":"no change with or without drug","viability z-score with doxorubicin":0.45,"viability z-score without drug":0.17,"z-score of drug to no-drug ratio":0.45,"doxorubicin viability vs non-targeting":0.98,"Call":"inactive"}
{"target gene":"Or51q1 (olfactory receptor family 51 subfamily Q member 1)","reagent":1,"combined z-score class":"no change with or without drug","viability z-score with doxorubicin":-1.57,"viability z-score without drug":-1.18,"z-score of drug to no-drug ratio":-0.79,"doxorubicin viability vs non-targeting":0.8,"Call":"inactive"}
